Assays:
[1] = system: HeLa cells (cervical adenocarcinoma); test: MTT assay; assay type: cell-based, human; settings: IC50 MRC-5 / IC50 HeLa
[2] = system: HCT 116 cells (colon cancer); test: MTT assay; assay type: cell-based, human

usnic acid
SI (selectivity index) ([1]; 24 h): 0.36 | SI (selectivity index) ([1]; 48 h): 0.41 | SI (selectivity index) ([1]; 72 h): 0.38 | SI (selectivity index) ([2]; IC50 MRC-5 / IC50 HCT 116, 24 h): 0.62 | SI (selectivity index) ([2]; IC50 MRC-5 / IC50 HCT 116, 48 h): 0.93 | SI (selectivity index) ([2]; IC50 MRC-5 / IC50 HCT 116, 72 h): 2.23

Reference: publication PMC9269301, “Phytochemical Analysis, Antioxidant, Antimicrobial, and Cytotoxic Activity of Different Extracts of Xanthoparmelia stenophylla Lichen from Stara Planina, Serbia” (Plants, 2022)
